Residue numbers refer to the chain shown, from its start. No constants are given. Whether binding was seen depends on the method and setting. Binding seen in cells or lysates may run through a third protein. A yes stands for co-enrichment or nearness to the bait. Other partners may have been found. Tags and fused reporters may be left off the sequences shown.
Assays:
[1] = target: T1, FLAG-, HA-tagged BAG domain mutant Bag-1L (K231/232/279A) (human) (UniProt Q99933); assay: affinity purification with mass spectrometry; SILAC RIME (rapid IP-mass spectrometry) of LNCaP cells with FLAG-HA-tagged Bag-1L WT or CMut; anti-HA-tag or rabbit IgG on Dynabeads; forward and reverse labelling
T1 sequence: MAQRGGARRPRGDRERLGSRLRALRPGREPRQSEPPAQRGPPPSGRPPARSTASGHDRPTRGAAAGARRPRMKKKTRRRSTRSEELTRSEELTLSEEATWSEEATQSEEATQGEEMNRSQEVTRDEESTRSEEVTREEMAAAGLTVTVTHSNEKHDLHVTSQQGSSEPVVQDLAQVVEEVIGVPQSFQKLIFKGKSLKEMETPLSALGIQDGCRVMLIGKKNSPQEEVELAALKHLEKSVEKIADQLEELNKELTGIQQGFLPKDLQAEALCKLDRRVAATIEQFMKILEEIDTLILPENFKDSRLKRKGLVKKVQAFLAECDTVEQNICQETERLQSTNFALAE

The chains behind the UniProt entries cited, without tags or fusion partners.
UniProt P0DMV8: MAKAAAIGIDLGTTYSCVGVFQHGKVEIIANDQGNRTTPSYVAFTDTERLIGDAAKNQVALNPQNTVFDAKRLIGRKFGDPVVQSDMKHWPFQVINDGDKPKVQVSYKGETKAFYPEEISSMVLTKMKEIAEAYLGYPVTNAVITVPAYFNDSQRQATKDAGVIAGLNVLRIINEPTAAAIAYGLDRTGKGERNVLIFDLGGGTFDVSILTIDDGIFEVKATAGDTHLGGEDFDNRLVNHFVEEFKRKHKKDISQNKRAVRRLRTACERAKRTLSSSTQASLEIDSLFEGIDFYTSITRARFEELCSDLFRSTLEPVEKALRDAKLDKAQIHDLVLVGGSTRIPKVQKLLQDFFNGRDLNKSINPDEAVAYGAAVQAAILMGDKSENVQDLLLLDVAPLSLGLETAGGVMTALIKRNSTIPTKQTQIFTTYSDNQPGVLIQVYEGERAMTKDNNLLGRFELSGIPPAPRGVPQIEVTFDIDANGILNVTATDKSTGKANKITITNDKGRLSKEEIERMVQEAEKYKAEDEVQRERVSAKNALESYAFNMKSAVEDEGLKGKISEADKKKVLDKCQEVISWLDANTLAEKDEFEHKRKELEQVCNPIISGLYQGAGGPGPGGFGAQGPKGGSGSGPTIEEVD
UniProt P10275: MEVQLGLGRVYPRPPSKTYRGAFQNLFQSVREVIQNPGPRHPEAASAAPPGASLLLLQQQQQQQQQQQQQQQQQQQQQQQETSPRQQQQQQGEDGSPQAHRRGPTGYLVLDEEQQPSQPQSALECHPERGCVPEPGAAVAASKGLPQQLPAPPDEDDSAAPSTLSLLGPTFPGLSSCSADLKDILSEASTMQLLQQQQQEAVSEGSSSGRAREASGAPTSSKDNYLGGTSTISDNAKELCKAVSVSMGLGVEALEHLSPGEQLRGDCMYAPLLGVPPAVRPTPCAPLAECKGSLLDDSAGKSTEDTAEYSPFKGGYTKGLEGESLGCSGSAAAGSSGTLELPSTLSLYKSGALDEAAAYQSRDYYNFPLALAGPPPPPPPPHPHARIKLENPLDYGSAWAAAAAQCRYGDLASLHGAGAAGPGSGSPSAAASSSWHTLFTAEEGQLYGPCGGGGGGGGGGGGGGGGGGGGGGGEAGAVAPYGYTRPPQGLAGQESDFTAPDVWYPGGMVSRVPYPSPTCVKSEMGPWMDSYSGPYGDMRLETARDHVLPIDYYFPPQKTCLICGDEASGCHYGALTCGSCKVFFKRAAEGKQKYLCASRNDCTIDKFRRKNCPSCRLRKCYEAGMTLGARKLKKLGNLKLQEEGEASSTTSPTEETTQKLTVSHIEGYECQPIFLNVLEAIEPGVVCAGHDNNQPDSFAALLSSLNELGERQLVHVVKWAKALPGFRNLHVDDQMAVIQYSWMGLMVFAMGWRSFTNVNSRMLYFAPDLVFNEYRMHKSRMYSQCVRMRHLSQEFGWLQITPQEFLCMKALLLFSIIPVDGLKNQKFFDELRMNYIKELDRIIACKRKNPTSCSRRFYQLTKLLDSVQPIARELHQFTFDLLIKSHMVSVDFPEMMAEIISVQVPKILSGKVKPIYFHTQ

[2] = target: T2, FLAG-, HA-tagged wild-type Bag-1L (human) (UniProt Q99933); assay: as above
T2 sequence: T1 sequence with A231K, A232K, A279K

Substance	binding [1]	binding [2]
Hsp70 (HSPA1), endogenous in LNCaP cells (from UniProt P0DMV8 1-641)	binds	binds
androgen receptor, endogenous in LNCaP cells (from UniProt P10275 1-920)	–	binds

Source: article PMC5629025 (2017)
